Measurements published in US6627411B2, “Method for evaluating matrix metalloprotease inhibitory activity” (Shionogi & Co., Ltd., priority 1999, dated 2003).
For at least one compound, name, drawing or mass did not settle the structure.

Key:
cancer = details: animal experimentation; cited from earlier work
[1] = system: gelatin degradation in cancer tissue (human lung cancer cell line Ma44); test: In situ zymography of tumor mass from Ma44-bearing nude mice after oral administration; format: in vivo; details: 200 mg/kg orally, two hours after administration
Experimental: Fifteen g of acid-treated swine cutis gelatin was dissolved in 123 g of pure water, and the solution was added with 1.2 ml of 1,2-bis(vinylsulfonylacetamido)ethane (4%) as a hardening agent. The solution was uniformly applied to a polyethylene terephthalate film undercoated with gelatin so as to obtain a dried membrane having a thickness of about 7 μm, and the membrane was dried to obtain a gelatin thin membrane. The gelatin thin membrane was stored at room temperature until the use.
Human lung cancer cell line Ma44 (CANCER RESEARCH 59, 1231-35 (1999)) that was known to produce MMP-2 in a large amount was used. Nude mice (six weeks aged, female, CLEA Japan, Inc.) were transplanted intraperitoneally with 1×10^5 Ma44 cells, and, 14 days later, BPHA or (−)BPHA was administered orally to the animals at 200 mg/kg. As control, a vehicle (a physiological saline containing 0.4% Tween80, 0.5% carboxymethyl cellulose, and 0.9% benzyl alcohol) was similarly administered. […]
The cancer tissue on the thin membrane was observed under light microscopy to determine the area where the gelatin degradation was recognized. Additionally, the slide scanner (Nikon 35 mm film scanner: COOLSCAN II) was used to analyze quantitatively the tone with the software Optimas Ver.6 (Optimas Corporation). […]

## O=C(NO)[C@H](Cc1ccccc1)NS(=O)(=O)c1ccc(-c2ccccc2)cc1 [(−)BPHA]
cancer
  anti-cancer activity: does not
[1]
  gelatin degradation observed by slide scanner: gelatin degradation was observed

## O=C(NO)[C@@H](Cc1ccccc1)NS(=O)(=O)c1ccc(-c2ccccc2)cc1 [BPHA]
cancer
  anti-cancer activity: exhibits the anti-cancer activity
[1]
  gelatin degradation observed by slide scanner: little gelatin degradation was observed
